Measurements from patent US20230220104A1.
No constants are given. Whether binding was seen depends on the method and setting. Some entries that bind do so weakly or less than the wild type. Blank lines part the entries; values can stand above or below the binder they belong to.

What was measured:
[1] = molecular target: human CD73 on cells (H322, MDA-MB-231, HT-144, T cells, CD73-transfected HEK293T) (human) (UniProt P21589); assay: flow cytometry, H322 cells endogenously expressing CD73
[2] = molecular target: human CD73 on cells (H322, MDA-MB-231, HT-144, T cells, CD73-transfected HEK293T) (human) (UniProt P21589); assay: flow cytometry on H322 cells (endogenous CD73), PE channel
[3] = molecular target: T1, rhesus CD73 on transfected HEK293T cells (rhesus) (UniProt F7GPZ7); assay: flow cytometry, HEK293T cells expressing the rhesus CD73 gene (reference)
T1 sequence: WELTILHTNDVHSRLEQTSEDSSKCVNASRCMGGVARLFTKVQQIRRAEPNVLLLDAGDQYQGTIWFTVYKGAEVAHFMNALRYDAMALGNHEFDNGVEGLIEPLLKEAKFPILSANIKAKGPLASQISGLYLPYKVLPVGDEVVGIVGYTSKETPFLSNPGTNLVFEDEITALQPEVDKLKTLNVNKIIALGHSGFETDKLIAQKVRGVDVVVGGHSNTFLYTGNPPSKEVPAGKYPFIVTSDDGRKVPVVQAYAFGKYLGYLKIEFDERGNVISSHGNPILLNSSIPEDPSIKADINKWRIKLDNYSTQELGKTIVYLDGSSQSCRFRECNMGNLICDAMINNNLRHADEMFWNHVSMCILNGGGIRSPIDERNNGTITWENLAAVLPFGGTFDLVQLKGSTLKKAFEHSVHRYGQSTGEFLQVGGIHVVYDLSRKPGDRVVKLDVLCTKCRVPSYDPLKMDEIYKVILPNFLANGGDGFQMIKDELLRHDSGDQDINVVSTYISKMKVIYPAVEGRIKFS

[4] = molecular target: T1, rhesus CD73 on transfected HEK293T cells (rhesus); assay: flow cytometry on HEK293T cells expressing the rhesus CD73 gene (same amino acid sequence as cynomolgus CD73), APC channel
[5] = molecular target: human CD73 on cells (H322, MDA-MB-231, HT-144, T cells, CD73-transfected HEK293T) (human) (UniProt P21589); assay: flow cytometry on MDA-MB-231 cells (endogenous CD73), fluorescently labeled secondary antibody, PE channel
[6] = molecular target: T2, CD73 recombinant antigen (self-prepared product) (Homo sapiens (Human)) (UniProt P21589); assay: antigen-immobilized ELISA and function screening (Example 1)
T2 sequence: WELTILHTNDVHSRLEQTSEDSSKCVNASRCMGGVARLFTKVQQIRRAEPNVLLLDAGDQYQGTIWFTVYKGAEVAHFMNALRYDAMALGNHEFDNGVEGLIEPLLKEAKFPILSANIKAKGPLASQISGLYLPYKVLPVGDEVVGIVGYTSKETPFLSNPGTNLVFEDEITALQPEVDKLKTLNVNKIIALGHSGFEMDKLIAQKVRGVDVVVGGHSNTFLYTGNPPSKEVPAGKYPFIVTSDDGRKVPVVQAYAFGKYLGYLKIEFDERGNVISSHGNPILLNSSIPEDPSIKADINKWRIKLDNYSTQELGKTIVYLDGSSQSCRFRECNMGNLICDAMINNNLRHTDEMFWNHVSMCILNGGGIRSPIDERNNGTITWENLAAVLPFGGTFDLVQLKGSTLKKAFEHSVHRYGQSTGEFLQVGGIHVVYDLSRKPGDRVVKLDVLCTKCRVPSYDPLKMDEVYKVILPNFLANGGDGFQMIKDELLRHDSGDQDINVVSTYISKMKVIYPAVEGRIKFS

[7] = molecular target: human CD73 on cells (H322, MDA-MB-231, HT-144, T cells, CD73-transfected HEK293T) (human) (UniProt P21589); assay: flow cytometry on HEK-293T cells forcibly expressing human CD73, fluorescently labeled secondary antibody, PE channel
[8] = molecular target: human CD73 on cells (H322, MDA-MB-231, HT-144, T cells, CD73-transfected HEK293T) (human) (UniProt P21589); assay: flow cytometry on H322 cells (endogenous CD73), fluorescently labeled secondary antibody, PE channel
[9] = molecular target: T1, rhesus CD73 on transfected HEK293T cells (rhesus); assay: flow cytometry, HEK293T cells expressing the rhesus CD73 gene

B1: 002_6_h7 (antibody, V domains shown)
VH: EVQLVESGAEVKKPGASVKVSCKASGYTFTDSNMDWVRQAPGQGLEWMGDINPNNGGTIYNQKFKGRVTMTRDTSINTAYMELSRLRSDDTAVYYCAMTNWDYAMDYWGQGTTVTVSS
VL: DIVMTQSPSSLSASVGDRVTITCKASQDINSQLSWYQQKPGKAPKLLIYRANRLIDGVPSRFSGSGSGTDFTLTISSLQPEDFATYYCQQYDVFPRTFGQGTKVEIK
binding [1]: binds
binding [2]: binds

B2: 002_6_h4 antibody (antibody, V domains shown)
VH: QVQMKQSAAEVRKPGASVKVSCKASGYTFTDSNMDWVRQAPGQGLEWMGDINPNNGGTIYNQKFKGRVTMTIDTSRSTAYMELRSLRSDDTAVYYCARTNWDYAMDYWGQGTTVTVSS
VL: DIQMTQSPSFLSASVGDRVTITCKASQDINSQLSWYQQKPGKAPKTLIYRANRLIDGVPSRFSGSGSGTDFTLTISSLQYEDMATYYCLQYDVFPRTFGGGTKLEIK
binding [3]: binds
binding [4]: binds

B5: 002_m antibody (antibody, V domains shown)
VH: QVQMKQSGPELVKPGASVKIPCKASGYTFTDCNMDWVKQSHGESLEWIGDINPNNGGTIYNQKFKGKVTLTIDKSSSTAYMELRSLTSEDTAVYYCARTNWDYAMDYWGQGTSVTVSS
VL: DIQMTQSPSSMYASLGERVTITCKASQDINSNLSWFQQKPGKSPKTLIYRANRLIDGVPSRFSGSGSGQDYSLTISSLEYEDMGIYYCLQYDVFPRTFGGGTKLELK
binding [6]: binds

B8: 005_m antibody (antibody, V domains shown)
VH: DVQLVESGPGLVAPSQSLSITCTVSGFSLTSYGVSWVRQPPGKGLEWLGVIWGDGSTNYHSALISRLSISKDNSKSQVFLKLNSLQTDDTATYYCAKTNIFYDYDWYLDVWGAGTTVTVSS
VL: DIVMTQAPLSLPVSLGDQASISCRSSQSLVHSNGNTYLHWYLQKPGQSPKLLIYKVSNRFSGVPDRFSGSGSGTDFTLKISRVEAEDLGVYFCSHSTHVPWTFGGGTKLELK
binding [6]: binds

More lines, now with the values ahead:

binding [5]: binds
binding [6]: binds
binding [7]: binds
binding [8]: binds
B3: 008_m antibody (antibody, V domains shown)
VH: QVQLKQSGAELVKPGASVKLSCKASGYTFTSYWMHWVKQRPGQGPEWIGEINPSNGRTNYNEKFKNRATLTVDKSSSTAYMQLSRLTSEDSAVYYCARRGTSGNYFDYWGQGTTLTVSS
VL: DIQMTQSPSSMYASLGERVTITCKASQDINTYLSWFQQKPGKSPKTLIYRANRLVDGVPSRFSGSGSGEDYSLTISSLEYEDMGIYYCLQYDEFPYTFGGGTRLEIK

binding [6]: binds
B4: 007_m antibody (antibody, V domains shown)
VH: QVQLQQPGAELVRPGASVKLSCKASGYTFTSYWMNWVKQRPEQGLEWIGKIDPYDSETHYNQKFKDKAILTVDKSSSTAFMQLSSLTSEDSAVYYCARIRYGTFDYWGQGTTLTVSS
VL: DIVMTQSPSSMYASLGERVTITCKASQDINNYLSWFQQKPGKSPKTLIYRANILVDGVPSGFSGSGSGQDYSLTISSLEYEDMGIYYCLQYDEFPYTFGGGTRLEIK

binding [6]: binds
B6: 006_m antibody (antibody, V domains shown)
VH: QVQLQQPGAELVKPGVSVKLSCKASGYTFTSYWMHWVKQRPGQGPEWIGEINPSNARTNYNENFKSKATLTVDKSSTTAYMHFSRLTSEDSAVYYCARRGTSGNYFDFWGQGTTVTVSS
VL: DIQMTQSPSSMYASLGERVTITCKASQDINTYLSWFQQKPGKSPKTLIYRANRLVDGVPSRFSGSGSGEDYSLTISSLEYEDMGIYYCLQYDEFPYTFGGGTRLEIK

binding [4]: binds
binding [9]: binds
B7: 006_hKB antibody (antibody, V domains shown)
VH: QVQLLQSGAEVKKPGESVKISCKASGYTFTSYWMHWVKQRPGQGLEWIGEINPSNARTNYNENFKSRFTITVDKSTSTAYMQFSRLRSDDTAVYYCARRGTSGNYFDFWGQGTMLTVSS
VL: DIQMTQSPSSLSASLGQRVTITCKASQDINTYLSWFQQKPGKPPKTLIYRANRLVDGVPSRFSGSGSGEDYSLTISSLQSEDFGVYYCLQYDEFPYTFGPGTRLEIK

binding [6]: binds
B9: 009_m antibody (antibody, V domains shown)
VH: QVQLQQSGAELVRPGASVKLSCKASGYTFTSYWMNWVKQRPEPGLEWIGRIDPYDSEAHYNQKFKDKAILTVDKSSSTAYMQLSSLTSEDSAVYYCTRIRYGTFDYWGQGTTLTVSS
VL: DIVLTQSPSSMYASLGERVTITCKASQDINSYLSWFQQKPGKSPKTLIYRSNSLVDGVPSRFSGSGSGQDYSLTISSLEYEDMGSYYCLQYDEFPYTFGGGTRLEIKR
